Data on 27 molecules can be found in PubChem BioAssay AID192 (DTP/NCI, 2004).

The assay has as its system BDF1 mice, B16 melanoma ip, median survival T/C. In words: NCI In Vivo Anticancer Drug Screen. Data for tumor model B16 Melanoma (intraperitoneal) in B6D2F1 (BDF1) mice. The following applies: T/C endpoint: median survival time, higher T/C = longer survival. Summed up:
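In this screen, activity was judged from survival or tumor size in treated versus vehicle-treated tumor-bearing mice, reported as T/C.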

The mark [1] stands for this setting: dose: 6.0 mg/kg/injection, schedule: Q01DX009 (ip), vehicle: saline with Tween-80.
[2] abbreviates: dose: 100.0 mg/kg/injection, schedule: Q01DX009 (ip), vehicle: Klucel (hydroxypropylcellulose) (HPC).
The mark [3] stands for this setting: dose: 400.0 mg/kg/injection, schedule: Q01DX009 (ip), vehicle: Klucel (hydroxypropylcellulose) (HPC).
[4] abbreviates: dose: 100.0 mg/kg/injection, schedule: Q01DX009 (ip), vehicle: saline.
[5] abbreviates: dose: 200.0 mg/kg/injection, schedule: Q01DX009 (ip), vehicle: Klucel (hydroxypropylcellulose) (HPC).
Where [6] appears, read: dose: 200.0 mg/kg/injection, schedule: Q01DX009 (ip), vehicle: saline with Tween-80.

The list shows only some results of the screen, not a fair sample: it is rich in T/C values a quarter to a half above the control, in often repeated tests (any T/C) and in doses without a T/C. Other doses and runs of a compound stand elsewhere. T/C is the treated group as % of the vehicle group. Some doses have a count of surviving animals in place of a T/C: the source holds a T/C of zero for them, seemingly a mark for toxic or unscored doses. Some doses without a T/C left all or most animals alive at the check, yet need not have been tolerated: the source hardly ever lists a survival T/C far under the control, and the zero likely stands for such cases as well. Survivors were counted at the toxicity check, usually on the fifth day, unless a day is given; later deaths do not show. Schedule codes are those of the source, read here as Q, the interval in days (D) or hours (H), X, the number of doses. Where survival is the endpoint, this PubChem deposit counts one and a half times the control or more as active, and values a quarter to a half above the control carry no call in these data; other NCI protocols may use other cut-offs. Some T/C values carry the count of animals alive at the toxicity check (mostly the fifth day); where none is given, no animal had died by that day. Some doses were run more than once; the values are given in rising order.

As to `CC1=CC(=O)C(CO)=CC1=O`, the survivor count reads like this: (dose: 0.75 mg/kg/injection, schedule: Q01DX009 (ip), vehicle: saline with Tween-80) 10 of 10; (dose: 1.5 mg/kg/injection, schedule: Q01DX009 (ip), vehicle: saline with Tween-80) 10 of 10; (dose: 3.0 mg/kg/injection, schedule: Q01DX009 (ip), vehicle: saline with Tween-80) 10 of 10; under setting [1], 10 of 10.
For `O=[N+]([O-])c1ccc2[nH]c(=S)sc2c1`, under setting [2], the survivor count is reported as 3 of 10.
Consider `CC(C)C1=CC2=CCC3C(C)(C(N)=O)CCCC3(C)C2CC1CC#N` (centres undefined), for which, where the note is “dose: 200.0 mg/kg/injection, schedule: Q04DX003 (ip), vehicle: saline with Tween-80”, the survivor count is recorded as 10 of 10.
As to `CCCCCCCCSC1=C(Cl)C(=O)C(OC)=C(OC)C1=O`, the survivor count reads like this: (dose: 6.25 mg/kg/injection, schedule: Q01DX009 (ip), vehicle: saline with Tween-80) 10 of 10; (dose: 12.5 mg/kg/injection, schedule: Q01DX009 (ip), vehicle: saline with Tween-80) 10 of 10; (dose: 25.0 mg/kg/injection, schedule: Q01DX009 (ip), vehicle: saline with Tween-80) 9 of 10; (dose: 37.5 mg/kg/injection, schedule: Q01DX009 (ip), vehicle: saline with Tween-80) 7 of 10.
For `Cc1ccc(NC(=O)Nc2ccc(Cl)c(Cl)c2)cc1Cl`, under setting [2], the survivor count is recorded as 10 of 10.
`COC(C(=O)C(O)C(C)O)C1CC2C=C3C=C(OC4CC(OC5CC(O)C(OC)C(C)O5)C(OC(C)=O)C(C)O4)C(C)C(=O)C3=C(O)C2=C(O)C1OC1CC(OC2CC(OC3CC(C)(O)C(O)C(C)O3)C(O)C(C)O2)C(O)C(C)O1` (centres undefined): the T/C is 143 % of control (dose: 1.8 mg/kg/injection, schedule: Q01DX009 (ip), vehicle: saline with Tween-80); 131 and 138 % of control [9 of 10 alive] (dose: 2.0 mg/kg/injection, schedule: Q01DX009 (ip), vehicle: saline with Tween-80); 142 % of control (dose: 4.0 mg/kg/injection, schedule: Q01DX009 (ip), vehicle: saline with Tween-80). The survivor count by setting is: under setting [1], 9 of 10; (dose: 9.0 mg/kg/injection, schedule: Q01DX009 (ip), vehicle: saline with Tween-80) 6 of 10.
As for `O=C(O)/C=C/C(=O)NCc1ccco1`, the survivor count under setting [3] is on record as 10 of 10.
In the case of `CC(C)N(Cc1ccccc1)CC(O)c1ccc(Cl)cc1` (centres undefined), the survivor count under setting [4] is on record as 10 of 10.
Consider `CCOC(=O)c1ccc(NC(=O)Nc2nncs2)cc1`, for which the survivor count is, setting by setting: (dose: 100.0 mg/kg/injection, schedule: Q01DX009 (ip), vehicle: distilled water + Tween-80) 7 of 10; (dose: 200.0 mg/kg/injection, schedule: Q01DX009 (ip), vehicle: distilled water + Tween-80) 6 of 10.
Take `O=C=Nc1ccc(Cc2ccc(N=C=O)cc2)cc1`: the T/C is, setting by setting: under setting [2], 136 % of control; under setting [5], 136 % of control.
Turning to `Cc1ccc(N=Nc2c(O)ccc3ccccc23)c(C)c1`, the survivor count under setting [3] is listed as 10 of 10.
`Nc1ccc(Cl)cc1N`: the survivor count is recorded as 8 of 10 under setting [6] and 6 of 10 (dose: 400.0 mg/kg/injection, schedule: Q01DX009 (ip), vehicle: saline with Tween-80).
On to `O=C(/C(=C\c1ccccc1)CBr)c1ccccc1`, for which the survivor count (dose: 0.75 mg/kg/injection, schedule: Q01DX009 (ip), vehicle: Klucel (hydroxypropylcellulose) (HPC)) is given as 10 of 10; the survivor count (dose: 1.5 mg/kg/injection, schedule: Q01DX009 (ip), vehicle: Klucel (hydroxypropylcellulose) (HPC)) is on record as 10 of 10; the survivor count (dose: 3.0 mg/kg/injection, schedule: Q01DX009 (ip), vehicle: Klucel (hydroxypropylcellulose) (HPC)) was 10 of 10; the survivor count (dose: 6.25 mg/kg/injection, schedule: Q01DX009 (ip), vehicle: Klucel (hydroxypropylcellulose) (HPC)) is 7 of 10; the survivor count (dose: 12.5 mg/kg/injection, schedule: Q01DX009 (ip), vehicle: Klucel (hydroxypropylcellulose) (HPC)) was 10 of 10; the survivor count (dose: 25.0 mg/kg/injection, schedule: Q01DX009 (ip), vehicle: Klucel (hydroxypropylcellulose) (HPC)) is 2 of 10.
For the molecule `CCCCCCCCCCCC(N)c1ccccc1` (centres undefined), the survivor count was 0 of 6 (dose: 50.0 mg/kg/injection, schedule: Q01DX009 (ip), vehicle: saline); 0 of 6 (dose: 75.0 mg/kg/injection, schedule: Q01DX009 (ip), vehicle: saline); 0 of 6 (dose: 115.0 mg/kg/injection, schedule: Q01DX009 (ip), vehicle: saline); 0 of 6 (dose: 170.0 mg/kg/injection, schedule: Q01DX009 (ip), vehicle: saline).
As for `O=[N+]([O-])c1ccc(NCCO)c([N+](=O)[O-])c1`, the survivor count (dose: 400.0 mg/kg/injection, schedule: Q04DX003 (ip), vehicle: saline with Tween-80) is 8 of 10.
In the case of `CC1=CC(=O)N(NC(N)=O)C1=O`, the survivor count under setting [4] is reported as 7 of 10.
Regarding `Cc1ccc(C)c(NC(=O)Nc2ccccc2C)c1`, the survivor count (dose: 100.0 mg/kg/injection, schedule: Q04DX003 (ip), vehicle: Klucel (hydroxypropylcellulose) (HPC)) was 10 of 10.
For the molecule `COC(=O)C(CSCc1ccccc1)NC(=O)CCNC(=O)OCc1ccccc1` (centres undefined), where the note is “dose: 400.0 mg/kg/injection, schedule: Q01DX009 (ip), vehicle: other”, the survivor count was 9 of 10.
Take `CC1OC(O[C@H]2C[C@](O)(C(C)O)Cc3c(O)c4c(c(O)c32)C(=O)c2c(O)cccc2C4=O)CC(NC=O)C1O` (some centres undefined): the T/C (dose: 1.0 micrograms/kg/injection, schedule: Q01DX009 (ip), vehicle: saline) is 126 % of control.
With `Cc1nc(-c2ccccc2)nc2c1CCO2`, the T/C is, setting by setting: (dose: 50.0 mg/kg/injection, schedule: Q01DX009 (ip), vehicle: saline with Tween-80) 127 % of control; under setting [6], 125 % of control [9 of 10 alive].
Take `Cc1cc(C)c(NC(=O)Nc2cccc(Cl)c2)c(C)c1`: under setting [3], the survivor count is 7 of 10.
Regarding `CS(=O)(=O)c1nnc(-c2ccccc2)s1`, the survivor count (dose: 400.0 mg/kg/injection, schedule: Q01DX009 (ip), vehicle: carboxymethylcellulose (CMC)) is reported as 2 of 10.
Turning to `CC(=O)Oc1cc(C)c(OC(C)=O)c2ccccc12`, the survivor count under setting [5] is reported as 0 of 10.
Regarding `CC(=O)NC1=C(N2CC2C)C(=O)C(NC(C)=O)=C(N2CC2C)C1=O` (centres undefined), the survivor count was 7 of 10 (dose: 2.5 mg/kg/injection, schedule: Q01DX009 (ip), vehicle: saline) and 10 of 10 (dose: 5.0 mg/kg/injection, schedule: Q01DX009 (ip), vehicle: saline).
`C/C(=C\c1ccc(C)cc1)[N+](=O)[O-]`: the survivor count runs as follows: (dose: 100.0 mg/kg/injection, schedule: Q01DX009 (ip), vehicle: saline with Tween-80) 9 of 10; under setting [6], 0 of 10.
As to `ClCCCCCCCCCCc1ccccc1`, the survivor count reads like this: under setting [2], 10 of 10; under setting [5], 10 of 10; under setting [3], 10 of 10.
Consider `CCCCC(=O)OC1CC2CCC1(C)C2(C)C` (centres undefined), for which the survivor count under setting [5] is listed as 10 of 10 and the survivor count under setting [3] was 8 of 10.
